# Assay results taken from publication doi:10.1101/2023.01.22.525087.
# The chains behind the UniProt entries cited, without tags or fusion partners. Residues count along the entry.
# UniProt P27467, residues 19-352: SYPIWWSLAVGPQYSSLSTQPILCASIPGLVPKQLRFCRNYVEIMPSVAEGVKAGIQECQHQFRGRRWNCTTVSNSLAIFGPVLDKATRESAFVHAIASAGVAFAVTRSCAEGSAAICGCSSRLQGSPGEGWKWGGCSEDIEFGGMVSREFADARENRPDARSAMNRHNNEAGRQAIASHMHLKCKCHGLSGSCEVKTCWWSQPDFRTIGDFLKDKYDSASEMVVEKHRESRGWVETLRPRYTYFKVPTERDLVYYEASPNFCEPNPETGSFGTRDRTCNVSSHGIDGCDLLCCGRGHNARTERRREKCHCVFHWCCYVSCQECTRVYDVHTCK
# UniProt P02769, residues 25-607: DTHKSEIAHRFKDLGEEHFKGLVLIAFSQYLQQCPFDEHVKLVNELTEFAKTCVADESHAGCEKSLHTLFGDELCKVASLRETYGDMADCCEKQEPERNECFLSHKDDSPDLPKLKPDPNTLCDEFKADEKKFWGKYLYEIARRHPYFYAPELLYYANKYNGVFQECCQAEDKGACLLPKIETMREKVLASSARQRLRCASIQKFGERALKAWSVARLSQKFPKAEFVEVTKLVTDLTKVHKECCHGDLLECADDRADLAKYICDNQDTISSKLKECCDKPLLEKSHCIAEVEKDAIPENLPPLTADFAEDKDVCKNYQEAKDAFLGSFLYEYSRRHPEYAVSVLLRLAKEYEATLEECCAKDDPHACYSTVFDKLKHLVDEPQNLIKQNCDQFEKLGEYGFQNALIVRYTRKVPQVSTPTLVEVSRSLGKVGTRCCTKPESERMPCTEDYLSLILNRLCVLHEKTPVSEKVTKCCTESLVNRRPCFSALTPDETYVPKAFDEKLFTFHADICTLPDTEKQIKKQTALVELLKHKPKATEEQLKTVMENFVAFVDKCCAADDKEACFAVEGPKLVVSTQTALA
# No constants are given. Whether binding was seen depends on the method and setting. Binding seen in cells or lysates may run through a third protein. Some binding calls cover weakened binding; strength is not graded here.
# B1: afamin (protein, UniProt P43652 22-599)
# chain: LPTQPRDIENFNSTQKFIEDNIEYITIIAFAQYVQEATFEEMEKLVKDMVEYKDRCMADKTLPECSKLPNNVLQEKICAMEGLPQKHNFSHCCSKVDAQRRLCFFYNKKSDVGFLPPFPTLDPEEKCQAYESNRESLLNHFLYEVARRNPFVFAPTLLTVAVHFEEVAKSCCEEQNKVNCLQTRAIPVTQYLKAFSSYQKHVCGALLKFGTKVVHFIYIAILSQKFPKIEFKELISLVEDVSSNYDGCCEGDVVQCIRDTSKVMNHICSKQDSISSKIKECCEKKIPERGQCIINSNKDDRPKDLSLREGKFTDSENVCQERDADPDTFFAKFTFEYSRRHPDLSIPELLRIVQIYKDLLRNCCNTENPPGCYRYAEDKFNETTEKSLKMVQQECKHFQNLGKDGLKYHYLIRLTKIAPQLSTEELVSLGEKMVTAFTTCCTLSEEFACVDNLADLVFGELCGVNENRTINPAVDHCCKTNFAFRRPCFESLKADKTYVPPPFSQDLFTFHADMCQSQNEELQRKTDRFLVNLVKLKHELTDEELQSLFTNFANVVDKCCKAESPEVCFNEESPKIGN
# Target: Wnt3a (UniProt P27467)
# Experiment: co-IP
row,Molecule,binding
1,bovine serum albumin (from UniProt P02769 25-607),no binding (tested: 5 mg/mL BSA)
2,B1,binds
